Test results from publication PMC9061725, “GGDEF domain as spatial on-switch for a phosphodiesterase by interaction with landmark protein HubP” (NPJ Biofilms and Microbiomes, 2022).
These are yes or no findings as the source states them, for the method shown. A result given as binding can be weak or reduced; the word gives no strength. Sequences can lack the tags named with a protein.

Biological target: FimV domain of S. putrefaciens HubP (S. putrefaciens)
Assay: SEC; purified MBP-GGDEF of SoPdeB mixed with purified FimV domain, incubated at least 1 h at 4 °C, then size exclusion chromatography (Superdex 200); both purified

B1: MBP-GGDEF_(SoPdeB), GGDEF domain of S. oneidensis PdeB, wild type (domain or fragment, UniProt Q8EJM6 454-587, looked up)
chain: RSLAVCYLDLEQFKLINDSCGHTAGDRMLAMVARAIQSCLGPQELLARIGGDEFGLVICDRTALAVAQLLKQIIAQVSLQVLHDKNCNYKVGLSIGVAFGRAPYINAQELLKDADIACIAAKAKGTNQIHIYDD
notes: GGDEF (diguanylate cyclase) domain of the phosphodiesterase PdeB of Shewanella oneidensis; construct limits may stand there; The MBP tag is named for SEC, iSCAMS and pull-down; also called SoGGDEF; SoGGDEF_(PdeB); source: E. coli BL21(DE3), pET24c, purified (His Trap, SEC)
- binding: binds
